In publication doi:10.1101/2021.02.22.432399:
No constants are given. Whether binding was seen depends on the method and setting. In cells and extracts the contact can be indirect. Binding calls can cover weak binding; strength is not graded here.

Tests used:
Experiment in all cases: co-IP
[1] = molecular target: T1, P450scc, TM3 mouse Leydig cells (mouse (endogenous in TM3)) (UniProt Q9QZ82)
T1 sequence: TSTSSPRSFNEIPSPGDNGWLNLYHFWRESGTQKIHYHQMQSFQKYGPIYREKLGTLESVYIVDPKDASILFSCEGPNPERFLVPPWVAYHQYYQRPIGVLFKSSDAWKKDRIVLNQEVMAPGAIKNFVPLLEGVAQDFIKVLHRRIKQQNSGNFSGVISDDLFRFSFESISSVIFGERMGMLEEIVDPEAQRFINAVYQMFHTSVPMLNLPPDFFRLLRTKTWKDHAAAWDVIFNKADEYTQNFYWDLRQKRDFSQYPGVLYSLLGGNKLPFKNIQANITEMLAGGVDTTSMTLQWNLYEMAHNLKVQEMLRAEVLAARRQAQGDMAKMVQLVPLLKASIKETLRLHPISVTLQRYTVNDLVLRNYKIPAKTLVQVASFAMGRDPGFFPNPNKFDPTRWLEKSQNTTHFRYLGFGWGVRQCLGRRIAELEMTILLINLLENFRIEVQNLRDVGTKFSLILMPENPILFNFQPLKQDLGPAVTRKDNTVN

[2] = molecular target: T2, P450scc, rat testis (rat (endogenous in testis)) (UniProt P14137)
T2 sequence: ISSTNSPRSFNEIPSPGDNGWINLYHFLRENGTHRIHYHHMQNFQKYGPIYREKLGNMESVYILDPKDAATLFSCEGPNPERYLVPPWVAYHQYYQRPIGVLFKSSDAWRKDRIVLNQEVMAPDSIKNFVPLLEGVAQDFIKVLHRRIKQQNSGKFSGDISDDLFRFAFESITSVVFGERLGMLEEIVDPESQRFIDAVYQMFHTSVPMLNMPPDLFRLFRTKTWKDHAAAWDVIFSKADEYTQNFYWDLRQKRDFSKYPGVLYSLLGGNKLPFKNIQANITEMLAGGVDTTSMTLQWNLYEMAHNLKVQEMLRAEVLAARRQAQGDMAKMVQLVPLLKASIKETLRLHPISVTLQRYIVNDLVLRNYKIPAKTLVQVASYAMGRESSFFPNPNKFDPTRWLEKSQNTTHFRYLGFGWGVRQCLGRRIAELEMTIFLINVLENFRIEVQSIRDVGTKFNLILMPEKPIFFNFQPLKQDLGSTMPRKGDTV

[3] = molecular target: T3, SOD2 (MnSOD), rat testis (rat (endogenous in testis)) (UniProt P07895)
T3 sequence: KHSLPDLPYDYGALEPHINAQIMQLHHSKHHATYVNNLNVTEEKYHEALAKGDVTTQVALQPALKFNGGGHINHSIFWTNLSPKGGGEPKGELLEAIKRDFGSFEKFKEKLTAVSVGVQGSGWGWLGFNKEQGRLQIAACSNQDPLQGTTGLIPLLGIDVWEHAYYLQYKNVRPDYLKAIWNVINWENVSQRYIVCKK

Substance | binding [1] | binding [2] | binding [3]
Mouse Sirt3 overexpressed from adenovirus (Ad-Sirt3) (enzyme) | binds | – | –
Sirtuin 3 (SIRT3), rat testis (enzyme) | – | binds | binds
